Laboratory results from the supplement of paper PMC8728848.
The other results are listed elsewhere or left out.

Legend:
Test in all cases: glycan array binding signal (z-score within array); higher = stronger binding
Conditions in all cases: glycan notation: IUPAC condensed, linker removed
[1] = target: Gal(b1-4)GlcNAc(b1-3)Gal(b1-4)GlcNAc(b1-2)Man(a1-3)[Gal(b1-4)GlcNAc(b1-3)Gal(b1-4)GlcNAc(b1-2)Man(a1-6)]Man(b1-4)GlcNAc(b1-4)[Fuc(a1-6)]GlcNAc
In short: (§1)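 Glycan array binding is given as a within-array Z-score, which can be read as non-binding when negative. The arrays, 3228 of them, came from the Consortium for Functional Glycomics database and were retained only where the protein sequence was available. Z-scores were averaged across arrays of the same protein sequence at different concentrations or buffers and across linkers.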

[2] = target: Gal(b1-4)GlcNAc(b1-3)Gal(b1-4)GlcNAc(b1-2)[Gal(b1-4)GlcNAc(b1-3)Gal(b1-4)GlcNAc(b1-6)]Man(a1-6)[Gal(b1-4)GlcNAc(b1-3)Gal(b1-4)GlcNAc(b1-2)Man(a1-3)]Man(b1-4)GlcNAc(b1-4)GlcNAc
In short: as §1

[3] = target: Gal(b1-4)GlcNAc(b1-3)Gal(b1-4)GlcNAc(b1-2)[Gal(b1-4)GlcNAc(b1-3)Gal(b1-4)GlcNAc(b1-6)]Man(a1-6)[Gal(b1-4)GlcNAc(b1-3)Gal(b1-4)GlcNAc(b1-2)Man(a1-3)]Man(b1-4)GlcNAc(b1-4)[Fuc(a1-6)]GlcNAc
In short: as §1

[4] = target: Gal(b1-4)GlcNAc(b1-3)Gal(b1-4)GlcNAc(b1-3)Gal(b1-4)GlcNAc
In short: as §1

[5] = target: Gal(b1-4)GlcNAc(b1-3)Gal(b1-4)GlcNAc(b1-3)Gal(b1-4)GlcNAc(b1-2)Man(a1-3)[Gal(b1-4)GlcNAc(b1-3)Gal(b1-4)GlcNAc(b1-3)Gal(b1-4)GlcNAc(b1-2)Man(a1-6)]Man(b1-4)GlcNAc(b1-4)GlcNAc
In short: as §1

[6] = target: Gal(b1-4)GlcNAc(b1-3)Gal(b1-4)GlcNAc(b1-3)Gal(b1-4)GlcNAc(b1-2)Man(a1-3)[Gal(b1-4)GlcNAc(b1-3)Gal(b1-4)GlcNAc(b1-3)Gal(b1-4)GlcNAc(b1-2)Man(a1-6)]Man(b1-4)GlcNAc(b1-4)[Fuc(a1-6)]GlcNAc
In short: as §1

[7] = target: Gal(b1-4)GlcNAc(b1-3)Gal(b1-4)GlcNAc(b1-3)Gal(b1-4)GlcNAc(b1-2)[Gal(b1-4)GlcNAc(b1-3)Gal(b1-4)GlcNAc(b1-3)Gal(b1-4)GlcNAc(b1-6)]Man(a1-6)[Gal(b1-4)GlcNAc(b1-3)Gal(b1-4)GlcNAc(b1-3)Gal(b1-4)GlcNAc(b1-2)Man(a1-3)]Man(b1-4)GlcNAc(b1-4)[Fuc(a1-6)]GlcNAc
In short: as §1

[8] = target: Gal(b1-4)GlcNAc(b1-3)Gal(b1-4)GlcNAc(b1-3)Gal(b1-4)GlcNAc(b1-3)Gal(b1-4)GlcNAc(b1-2)Man(a1-3)[Gal(b1-4)GlcNAc(b1-3)Gal(b1-4)GlcNAc(b1-3)Gal(b1-4)GlcNAc(b1-3)Gal(b1-4)GlcNAc(b1-2)Man(a1-6)]Man(b1-4)GlcNAc(b1-4)GlcNAc
In short: as §1

[9] = target: Gal(b1-4)GlcNAc(b1-3)Gal(b1-4)GlcNAc(b1-3)Gal(b1-4)GlcNAc(b1-3)Gal(b1-4)GlcNAc(b1-2)Man(a1-3)[Gal(b1-4)GlcNAc(b1-3)Gal(b1-4)GlcNAc(b1-3)Gal(b1-4)GlcNAc(b1-3)Gal(b1-4)GlcNAc(b1-2)Man(a1-6)]Man(b1-4)GlcNAc(b1-4)[Fuc(a1-6)]GlcNAc
In short: as §1

[10] = target: Gal(b1-4)GlcNAc(b1-3)Gal(b1-4)GlcNAc(b1-3)Gal(b1-4)GlcNAc(b1-3)Gal(b1-4)GlcNAc(b1-2)[Gal(b1-4)GlcNAc(b1-3)Gal(b1-4)GlcNAc(b1-3)Gal(b1-4)GlcNAc(b1-3)Gal(b1-4)GlcNAc(b1-6)]Man(a1-6)[Gal(b1-4)GlcNAc(b1-3)Gal(b1-4)GlcNAc(b1-3)Gal(b1-4)GlcNAc(b1-3)Gal(b1-4)GlcNAc(b1-2)Man(a1-3)]Man(b1-4)GlcNAc(b1-4)[Fuc(a1-6)]GlcNAc
In short: as §1

[11] = target: Gal(b1-4)GlcNAc(b1-3)Gal(b1-4)GlcNAc(b1-3)Gal(b1-4)GlcNAc(b1-3)Gal(b1-4)GlcNAc(b1-3)Gal(b1-4)GlcNAc(b1-2)Man(a1-3)[Gal(b1-4)GlcNAc(b1-3)Gal(b1-4)GlcNAc(b1-3)Gal(b1-4)GlcNAc(b1-3)Gal(b1-4)GlcNAc(b1-3)Gal(b1-4)GlcNAc(b1-2)Man(a1-6)]Man(b1-4)GlcNAc(b1-4)GlcNAc
In short: as §1

[12] = target: Gal(b1-4)GlcNAc(b1-3)Gal(b1-4)GlcNAc(b1-3)Gal(b1-4)GlcNAc(b1-3)Gal(b1-4)GlcNAc(b1-3)Gal(b1-4)GlcNAc(b1-2)Man(a1-3)[Gal(b1-4)GlcNAc(b1-3)Gal(b1-4)GlcNAc(b1-3)Gal(b1-4)GlcNAc(b1-3)Gal(b1-4)GlcNAc(b1-3)Gal(b1-4)GlcNAc(b1-2)Man(a1-6)]Man(b1-4)GlcNAc(b1-4)[Fuc(a1-6)]GlcNAc
In short: as §1

[13] = target: Gal(b1-4)GlcNAc(b1-3)Gal(b1-4)GlcNAc(b1-3)Gal(b1-4)GlcNAc(b1-3)Gal(b1-4)GlcNAc(b1-3)Gal(b1-4)GlcNAc(b1-2)[Gal(b1-4)GlcNAc(b1-3)Gal(b1-4)GlcNAc(b1-3)Gal(b1-4)GlcNAc(b1-3)Gal(b1-4)GlcNAc(b1-3)Gal(b1-4)GlcNAc(b1-6)]Man(a1-6)[Gal(b1-4)GlcNAc(b1-3)Gal(b1-4)GlcNAc(b1-3)Gal(b1-4)GlcNAc(b1-3)Gal(b1-4)GlcNAc(b1-3)Gal(b1-4)GlcNAc(b1-2)Man(a1-3)]Man(b1-4)GlcNAc(b1-4)[Fuc(a1-6)]GlcNAc
In short: as §1

[14] = target: Gal(b1-4)GlcNAc(b1-3)Gal(b1-4)GlcNAc(b1-3)Gal(b1-4)GlcNAc(b1-3)Gal(b1-4)GlcNAc(b1-3)Gal(b1-4)GlcNAc(b1-3)Gal(b1-4)GlcNAc(b1-2)Man(a1-3)[Gal(b1-4)GlcNAc(b1-3)Gal(b1-4)GlcNAc(b1-3)Gal(b1-4)GlcNAc(b1-3)Gal(b1-4)GlcNAc(b1-3)Gal(b1-4)GlcNAc(b1-3)Gal(b1-4)GlcNAc(b1-2)Man(a1-6)]Man(b1-4)GlcNAc(b1-4)GlcNAc
In short: as §1

[15] = target: Gal(b1-4)GlcNAc(b1-3)Gal(b1-4)GlcNAc(b1-3)GalNAc
In short: as §1

[16] = target: Gal(b1-4)GlcNAc(b1-3)Gal(b1-4)GlcNAc(b1-3)[Gal(b1-4)GlcNAc(b1-3)Gal(b1-4)GlcNAc(b1-6)]GalNAc
In short: as §1

[17] = target: Gal(b1-4)GlcNAc(b1-3)Gal(b1-4)GlcNAc(b1-6)[Gal(b1-3)]GalNAc
In short: as §1

[18] = target: Gal(b1-4)GlcNAc(b1-3)Gal(b1-4)[Fuc(a1-3)]GlcNAc(b1-3)Gal(b1-4)[Fuc(a1-3)]GlcNAc
In short: as §1

[19] = target: Gal(b1-4)GlcNAc(b1-3)GalNAc
In short: as §1

[20] = target: Gal(b1-4)GlcNAc(b1-3)[Fuc(a1-3)GlcNAc(b1-6)]Gal(b1-4)Glc
In short: as §1

[21] = target: Gal(b1-4)GlcNAc(b1-3)[Gal(b1-4)GlcNAc(b1-6)]Gal(b1-4)GlcNAc
In short: as §1

[22] = target: Gal(b1-4)GlcNAc(b1-3)[GlcNAc(b1-6)]Gal(b1-4)GlcNAc
In short: as §1

[23] = target: Gal(b1-4)GlcNAc(b1-6)Gal(b1-4)GlcNAc
In short: as §1

[24] = target: Gal(b1-4)GlcNAc(b1-6)GalNAc
In short: as §1

[25] = target: Gal(b1-4)GlcNAc(b1-6)[Gal(b1-3)]GalNAc
In short: as §1

[26] = target: Gal(b1-4)GlcNAc(b1-6)[Gal(b1-4)GlcNAc(b1-3)]GalNAc
In short: as §1

Gal(b1-4)GlcNAc6P = target: Gal(b1-4)GlcNAc6P
In short: as §1

Gal(b1-6)Gal = target: Gal(b1-6)Gal
In short: as §1

Gal3S(b1-3)GalNAc = target: Gal3S(b1-3)GalNAc
In short: as §1

Gal3S(b1-3)GlcNAc = target: Gal3S(b1-3)GlcNAc
In short: as §1

[27] = target: Gal3S(b1-3)[Fuc(a1-4)]GlcNAc
In short: as §1

Gal3S(b1-4)Glc = target: Gal3S(b1-4)Glc
In short: as §1

Gal3S(b1-4)Glc6S = target: Gal3S(b1-4)Glc6S
In short: as §1

Gal3S(b1-4)GlcNAc = target: Gal3S(b1-4)GlcNAc
In short: as §1

[28] = target: Gal3S(b1-4)[Fuc(a1-3)]Glc6S
In short: as §1

[29] = target: Gal3S(b1-4)[Fuc(a1-3)]GlcNAc
In short: as §1

[30] = target: Gal3S(b1-4)[Fuc(a1-3)]GlcNAc6S
In short: as §1

B1: Epa2 (Candida glabrata) (protein)
chain: MGSSHHHHHHSSGLVPRGSHMASSKDPTSFPMGCSPQVLKTQPGLAVKLYSYGHPVPGCAYNTYQYPDFPRSGYKKERKLADITGVNGRIDIDLKPNDPCRVLSGNLPSNYNYQNTLTYTNFTMILYGYFQPKVTGYHTFNLEADDLLFMNLGAGNAFDCCRAESTLDNFGNYQSYSIWGTDKATADLTVFLVSGIYYPIRLFYVNRDNNAVLDFSFSTEFNKEIIHDFTSYFFSASDEEQCPGNI
In the case of B1, the “glycan array binding signal (z-score)” value [1] is reported as 0.286, the “glycan array binding signal (z-score)” value [2] is reported as 0.94 and the “glycan array binding signal (z-score)” value [3] is reported as 0.612. The “glycan array binding signal (z-score)” value [4] was -0.341, the “glycan array binding signal (z-score)” value [5] was 1.89 and the “glycan array binding signal (z-score)” value [6] was 0.023. The “glycan array binding signal (z-score)” value [7] was 1.32, the “glycan array binding signal (z-score)” value [8] was 0.526 and the “glycan array binding signal (z-score)” value [9] was 0.594. For the same binder, the “glycan array binding signal (z-score)” value [10] was 0.16, the “glycan array binding signal (z-score)” value [11] was 0.797 and the “glycan array binding signal (z-score)” value [12] was 0.756. For the same binder, the “glycan array binding signal (z-score)” value [13] was 0.852, the “glycan array binding signal (z-score)” value [14] was -0.314 and the “glycan array binding signal (z-score)” value [15] was 0.672. For the same binder, the “glycan array binding signal (z-score)” value [16] was 0.645, the “glycan array binding signal (z-score)” value [17] was 0.373 and the “glycan array binding signal (z-score)” value [18] was -0.231. For the same binder, the “glycan array binding signal (z-score)” value [19] was -0.071, the “glycan array binding signal (z-score)” value [20] was 0.111 and the “glycan array binding signal (z-score)” value [21] was 0.092. For the same binder, the “glycan array binding signal (z-score)” value [22] was -1.09, the “glycan array binding signal (z-score)” value [23] was 0.05 and the “glycan array binding signal (z-score)” value [24] was 0.29. The “glycan array binding signal (z-score)” value [25] was 0.842, the “glycan array binding signal (z-score)” value [26] was -0.015 and the “glycan array binding signal (z-score)” value (Gal(b1-4)GlcNAc6P) was 1.42. For the same binder, the “glycan array binding signal (z-score)” value (Gal(b1-6)Gal) was -0.157, the “glycan array binding signal (z-score)” value (Gal3S(b1-3)GalNAc) was -0.202 and the “glycan array binding signal (z-score)” value (Gal3S(b1-3)GlcNAc) was -0.16. The “glycan array binding signal (z-score)” value [27] was 0.641, the “glycan array binding signal (z-score)” value (Gal3S(b1-4)Glc) was -0.697 and the “glycan array binding signal (z-score)” value (Gal3S(b1-4)Glc6S) was -0.006. The “glycan array binding signal (z-score)” value (Gal3S(b1-4)GlcNAc) was 0.419, the “glycan array binding signal (z-score)” value [28] was 0.295 and the “glycan array binding signal (z-score)” value [29] was -0.151. For the same binder, the “glycan array binding signal (z-score)” value [30] was 1.59.
